This assay has as its target CTBP2 (C-terminal binding protein 2) (human (endogenous in BTSC lines, SNB19, LN229)) (UniProt P56545). Kind of assay: affinity purification with mass spectrometry.

Amino acid sequences for entries named in this document (tags omitted).
UniProt O75362: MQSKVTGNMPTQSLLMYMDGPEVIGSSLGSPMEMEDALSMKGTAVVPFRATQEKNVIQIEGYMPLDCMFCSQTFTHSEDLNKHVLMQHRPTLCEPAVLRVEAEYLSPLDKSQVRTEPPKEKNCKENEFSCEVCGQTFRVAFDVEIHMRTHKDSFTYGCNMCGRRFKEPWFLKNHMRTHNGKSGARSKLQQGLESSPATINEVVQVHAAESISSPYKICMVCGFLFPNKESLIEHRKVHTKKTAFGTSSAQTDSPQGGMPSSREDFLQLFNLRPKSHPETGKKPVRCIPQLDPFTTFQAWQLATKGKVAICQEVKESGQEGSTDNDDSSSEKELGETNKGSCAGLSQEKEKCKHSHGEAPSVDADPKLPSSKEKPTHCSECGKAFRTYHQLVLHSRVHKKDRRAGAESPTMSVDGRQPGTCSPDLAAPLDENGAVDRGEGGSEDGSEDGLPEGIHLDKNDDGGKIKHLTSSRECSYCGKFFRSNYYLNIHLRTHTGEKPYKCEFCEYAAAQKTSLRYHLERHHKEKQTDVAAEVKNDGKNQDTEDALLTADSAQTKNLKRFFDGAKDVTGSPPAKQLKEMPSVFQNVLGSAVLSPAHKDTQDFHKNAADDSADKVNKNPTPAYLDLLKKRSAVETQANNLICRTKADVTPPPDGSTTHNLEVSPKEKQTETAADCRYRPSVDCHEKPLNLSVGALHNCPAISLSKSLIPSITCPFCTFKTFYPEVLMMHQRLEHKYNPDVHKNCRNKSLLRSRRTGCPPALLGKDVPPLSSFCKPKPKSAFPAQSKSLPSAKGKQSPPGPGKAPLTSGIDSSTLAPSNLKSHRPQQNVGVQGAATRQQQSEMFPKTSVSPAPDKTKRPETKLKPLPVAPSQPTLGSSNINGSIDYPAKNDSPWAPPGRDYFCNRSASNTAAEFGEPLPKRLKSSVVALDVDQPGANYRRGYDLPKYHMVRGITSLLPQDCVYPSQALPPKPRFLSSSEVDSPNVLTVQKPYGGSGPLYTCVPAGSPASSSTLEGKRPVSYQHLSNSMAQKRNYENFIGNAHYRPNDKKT

These are yes or no findings as the source states them, for the method shown. Binding seen in cells or lysates may run through a third protein. Here binding means that the protein was enriched with, or labelled near, the bait; the list need not be complete.

In the case of “HDAC2 (histone deacetylase 2) (from UniProt Q92769 1-488) (enzyme)”, the binding result was “binds”.
For ZNF217 (from UniProt O75362 1-1048) the value was “binds”.

(Values after doi:10.1101/2020.04.17.046268.)
